Source: PMC12805590
Results are given in words; binding and its absence hold for the method and conditions named. In cells and extracts the contact can be indirect. Some binding calls cover weakened binding; strength is not graded here.

Amino acid sequences for entries named in this document (tags omitted).
UniProt Q00987: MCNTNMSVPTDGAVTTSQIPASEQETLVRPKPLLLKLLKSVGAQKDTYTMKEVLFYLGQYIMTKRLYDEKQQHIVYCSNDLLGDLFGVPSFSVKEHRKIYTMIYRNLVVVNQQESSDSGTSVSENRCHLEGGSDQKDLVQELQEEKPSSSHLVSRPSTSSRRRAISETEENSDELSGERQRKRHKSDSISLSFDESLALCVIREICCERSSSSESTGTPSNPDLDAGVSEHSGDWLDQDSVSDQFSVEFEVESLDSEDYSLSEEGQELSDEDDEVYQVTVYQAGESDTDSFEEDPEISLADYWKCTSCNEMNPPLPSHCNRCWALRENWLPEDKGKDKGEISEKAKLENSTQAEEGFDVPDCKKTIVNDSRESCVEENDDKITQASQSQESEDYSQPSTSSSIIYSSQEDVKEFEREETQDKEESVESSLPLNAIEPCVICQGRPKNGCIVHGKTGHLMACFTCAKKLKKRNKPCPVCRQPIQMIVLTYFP

Molecular target: T1, Livin (BIRC7) (human (endogenous in MDA-MB-231 and MCF-7)) (UniProt Q96CA5)
T1 sequence: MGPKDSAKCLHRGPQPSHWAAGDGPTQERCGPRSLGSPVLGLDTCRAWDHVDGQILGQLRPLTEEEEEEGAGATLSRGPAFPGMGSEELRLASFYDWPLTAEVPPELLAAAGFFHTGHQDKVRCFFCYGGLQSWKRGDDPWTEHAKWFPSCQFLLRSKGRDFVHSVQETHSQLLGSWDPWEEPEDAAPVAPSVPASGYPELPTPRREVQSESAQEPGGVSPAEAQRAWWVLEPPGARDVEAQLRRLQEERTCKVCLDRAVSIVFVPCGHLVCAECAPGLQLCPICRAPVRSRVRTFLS
Experiment: co-IP; endogenous proteins, MCF-7 and MDA-MB-231 lysates

binding: binds
Substance: mouse double minute 2 homolog (MDM2) (from UniProt Q00987 1-491)
